From US20180022822A1, “NOVEL ANTI-FIBROBLAST ACTIVATION PROTEIN (FAP) BINDING AGENTS AND USES THEREOF” (Mabimmune Diagnostics AG, priority 2016, published 2018)
These are yes or no findings as the source states them, for the method shown. Some results given as binding are weak or reduced against the parent protein; the word gives no strength.

Amino acid sequences for entries named in this document (tags omitted). A change or cut given only in a name is not applied to a line headed by its entry. Chains listed by the source or under a name are the forms on record and can include a tag or linker.
UniProt Q12884: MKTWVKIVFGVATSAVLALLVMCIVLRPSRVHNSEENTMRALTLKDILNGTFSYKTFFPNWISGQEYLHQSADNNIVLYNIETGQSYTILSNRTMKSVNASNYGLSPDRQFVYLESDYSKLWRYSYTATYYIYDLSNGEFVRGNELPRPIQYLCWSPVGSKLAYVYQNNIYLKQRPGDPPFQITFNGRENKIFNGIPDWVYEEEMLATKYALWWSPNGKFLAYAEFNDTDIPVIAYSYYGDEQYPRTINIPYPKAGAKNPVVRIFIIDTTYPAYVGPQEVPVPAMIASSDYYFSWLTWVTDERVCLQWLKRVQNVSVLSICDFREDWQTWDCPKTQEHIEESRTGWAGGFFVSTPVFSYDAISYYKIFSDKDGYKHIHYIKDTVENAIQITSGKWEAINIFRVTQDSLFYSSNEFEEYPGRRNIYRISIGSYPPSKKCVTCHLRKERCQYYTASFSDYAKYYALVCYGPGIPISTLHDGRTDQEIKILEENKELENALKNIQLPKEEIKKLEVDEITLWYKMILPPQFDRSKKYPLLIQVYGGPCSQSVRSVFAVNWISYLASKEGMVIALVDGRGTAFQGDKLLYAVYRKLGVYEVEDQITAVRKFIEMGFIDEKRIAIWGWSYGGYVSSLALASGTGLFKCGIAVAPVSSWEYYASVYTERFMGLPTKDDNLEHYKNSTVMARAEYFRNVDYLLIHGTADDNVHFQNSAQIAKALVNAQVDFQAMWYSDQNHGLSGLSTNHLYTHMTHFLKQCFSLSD
recombinant human Fibroblast Activation Protein (FAP) with N-terminus 6x histidine tag (Q12884, form named): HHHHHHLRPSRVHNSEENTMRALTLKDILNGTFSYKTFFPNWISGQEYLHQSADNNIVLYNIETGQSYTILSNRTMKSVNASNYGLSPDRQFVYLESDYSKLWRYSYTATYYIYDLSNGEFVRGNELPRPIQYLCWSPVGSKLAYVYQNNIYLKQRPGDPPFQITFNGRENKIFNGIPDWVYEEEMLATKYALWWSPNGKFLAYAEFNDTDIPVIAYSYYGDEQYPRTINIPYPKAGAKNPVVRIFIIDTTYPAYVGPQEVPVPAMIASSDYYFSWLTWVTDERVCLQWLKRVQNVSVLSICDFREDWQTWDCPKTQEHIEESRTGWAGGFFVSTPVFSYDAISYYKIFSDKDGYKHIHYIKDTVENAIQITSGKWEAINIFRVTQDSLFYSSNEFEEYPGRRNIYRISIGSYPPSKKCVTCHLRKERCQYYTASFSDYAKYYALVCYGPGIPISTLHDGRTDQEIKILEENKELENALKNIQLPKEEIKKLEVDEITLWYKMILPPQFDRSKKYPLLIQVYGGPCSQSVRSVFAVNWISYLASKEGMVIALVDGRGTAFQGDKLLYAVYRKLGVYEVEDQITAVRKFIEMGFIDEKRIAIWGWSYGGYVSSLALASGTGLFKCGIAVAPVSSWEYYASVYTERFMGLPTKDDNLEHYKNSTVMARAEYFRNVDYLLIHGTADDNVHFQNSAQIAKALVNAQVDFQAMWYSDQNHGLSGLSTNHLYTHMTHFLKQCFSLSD

Legend:
[1] = target: recombinant human Fibroblast Activation Protein (FAP) with N-terminus 6x histidine tag (human) (UniProt Q12884); experiment: capture ELISA, OD 450 nm (FIG. 2A)
[2] = target: recombinant human Fibroblast Activation Protein (FAP) with N-terminus 6x histidine tag (human) (UniProt Q12884); experiment: direct ELISA, OD 450 nm (FIG. 2B)
[3] = target: transmembrane human FAP on FAP expressing HEK293 cells (human) (UniProt Q12884); experiment: flow cytometry: Cy5-labelled antibody on FAP-expressing HEK293 cells in pH-adjusted PBS; delta MFI = MFI of the antibody minus MFI of Cy5-43A11; the antibody concentration of the plotted curve is not given on the sheet
[4] = target: recombinant human Fibroblast Activation Protein (FAP) with N-terminus 6x histidine tag (human) (UniProt Q12884); experiment: sandwich ELISA: F19 capture, HRP-labelled 82C2 detection (FIG. 17)
[5] = target: recombinant human Fibroblast Activation Protein (FAP) with N-terminus 6x histidine tag (human) (UniProt Q12884); experiment: ELISA: rhFAP held on the plate by an anti-tag antibody, HRP-labelled NI-206.82C2 titrated, TMB, OD 450 nm; markers as in the legend box beside panel F [continued) E]
[6] = target: T1, FAP peptide fragment 521-…-539 (human); experiment: truncation peptide array; spot 21 is the full length peptide
T1 sequence (peptide): KMILPPQFDRSKKYPLLIQ

[7] = target: recombinant human Fibroblast Activation Protein (FAP) with N-terminus 6x histidine tag (human) (UniProt Q12884); experiment: ELISA at 20, 4 and 0.8 nM antibody (FIG. 7A)
[8] = target: recombinant human Fibroblast Activation Protein (FAP) with N-terminus 6x histidine tag (human) (UniProt Q12884); experiment: ELISA: enzyme captured by anti-tag antibody, HRP-labelled NI-206.82C2 titrated 0.004-400 nM (FIG. 7E)
[9] = target: transmembrane human FAP on FAP expressing HEK293 cells (human) (UniProt Q12884); experiment: flow cytometry, Cy5 labelled antibody on FAP+ HEK293 cells in pH adjusted PBS (FIG. 24A)
[10] = target: transmembrane human FAP on FAP expressing HEK293 cells (human) (UniProt Q12884); experiment: flow cytometry on FAP-HEK293 cells, ΔMFI against 43A11, pH 6.2-7.4
[11] = target: T2, FAP peptide 28 (109-…-123) (human); experiment: pepscan, antibody at 1 µg/ml (FIG. 4A)
T2 sequence (peptide): RQFVYLESDYSKLWR

[12] = target: T3, FAP peptide 29 (113-…-127) (human); experiment: pepscan, antibody at 1 µg/ml (FIG. 4A)
T3 sequence (peptide): YLESDYSKLWRYSYT

[13] = target: T4, FAP peptide 132 (525-…-539) (human); experiment: pepscan, antibody at 1 µg/ml (FIG. 4A)
T4 sequence (peptide): PPQFDRSKKYPLLIQ

[14] = target: T5, FAP peptide 131 (521-…-535) (human); experiment: pepscan, antibody at 1 µg/ml (FIG. 4A)
T5 sequence (peptide): KMILPPQFDRSKKYP

[15] = target: recombinant human Fibroblast Activation Protein (FAP) with N-terminus 6x histidine tag (human) (UniProt Q12884); experiment: sandwich ELISA: F19 coated as capture antibody, rhFAP titrated, HRP-labelled NI-206.82C2 as detection antibody [C]
[16] = target: recombinant human Fibroblast Activation Protein (FAP) with N-terminus 6x histidine tag (human) (UniProt Q12884); experiment: capture and direct ELISA
[17] = target: recombinant human Fibroblast Activation Protein (FAP) with N-terminus 6x histidine tag (human) (UniProt Q12884); experiment: ELISA: rhFAP captured through its His-tag by coated anti-His antibody (sFAP), antibody at 20, 4 and 0.8 nM
[18] = target: T4, FAP peptide 132 (525-…-539) (human); experiment: pepscan, spotted 15-mer peptides
[19] = target: T5, FAP peptide 131 (521-…-535) (human); experiment: pepscan, spotted 15-mer peptides

Measured: binding

B1: NI-206.82C2 (antibody, V domains shown)
VH: QVQLQQSGPGLVKPSQTLSLTCAISGDSVSSNSVTWNWIRQSPSRGLEWLGRTYYRSKWYNDYAVSVKGRITINPDTSKNQFYLQLKSVTPEDAAVYYCARDSSILYGDYWGQGTLVTVSS
VL: QAVLTQPSSLSASPGASASLTCTLPSGINVGTYRIFWFQQKPGSPPQYLLSYKSDSDNHQGSGVPSRFSGSKDASANAGILLISGLQSEDEADYYCMIWHSSAWVFGGGTKLTVL
binds: [1] | [2] | [3] | [4] | [5] | [6] | [7] | [8] | [9] | [10] | [11] | [12] | [13] | [14] | [15] | [16] | [17] | [18] | [19]
